These results are taken from article PMC10592355.

Construct, isoform or probe ends are uncertain for at least one entry. For some of these results: A negative result means that nothing was seen under these conditions. Where a protein sequence is shown, tags need not be part of it. For some of these results: Results from cells or extracts need not show a direct contact.

The target of data set [1] is T1, TyrRS-V5 (Homo sapiens) (UniProt P54577).
T1 sequence (looked up, limits assumed): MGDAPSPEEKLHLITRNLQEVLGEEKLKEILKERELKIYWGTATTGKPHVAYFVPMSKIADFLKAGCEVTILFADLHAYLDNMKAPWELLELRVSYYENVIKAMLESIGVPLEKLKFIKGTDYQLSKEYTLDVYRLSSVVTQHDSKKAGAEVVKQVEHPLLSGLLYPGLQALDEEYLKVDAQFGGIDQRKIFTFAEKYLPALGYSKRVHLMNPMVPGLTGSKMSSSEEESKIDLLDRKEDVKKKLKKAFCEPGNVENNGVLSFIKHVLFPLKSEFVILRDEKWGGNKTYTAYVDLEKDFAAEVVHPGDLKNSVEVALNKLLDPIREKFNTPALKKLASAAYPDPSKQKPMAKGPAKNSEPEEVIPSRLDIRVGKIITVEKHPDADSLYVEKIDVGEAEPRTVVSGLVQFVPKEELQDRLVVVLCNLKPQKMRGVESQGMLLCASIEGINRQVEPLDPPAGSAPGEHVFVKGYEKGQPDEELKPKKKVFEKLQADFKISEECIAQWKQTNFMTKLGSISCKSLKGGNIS
The data set can be described thus: EMSA supershift. To be noted: anti-V5 supershift, nuclear extract; protein in an extract; protein details: V5.

Data set [2] concerns the target T1, TyrRS-V5 (Homo sapiens). In words: competition with a labelled probe. To be noted: cold N1 competes with hot N1, nuclear extract; protein in an extract; protein details: V5.
The target of the next data set is T2, CTD-V5 (Homo sapiens) (UniProt P54577).
T2 sequence (looked up, limits assumed): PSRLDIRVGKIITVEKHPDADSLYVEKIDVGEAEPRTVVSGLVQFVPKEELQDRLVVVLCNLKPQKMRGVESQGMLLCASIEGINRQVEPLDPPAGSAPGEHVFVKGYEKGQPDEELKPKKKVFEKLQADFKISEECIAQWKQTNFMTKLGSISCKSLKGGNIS
In words: EMSA. To be noted: nuclear extract; protein in an extract; protein details: V5. (Mobility shift assays separate free from complexed probe on a gel.)

The target of data set [3] is T3, TyrRS purified from mammalian cells (Homo sapiens) (UniProt P54577).
T3 sequence (looked up, limits assumed): T1 sequence (looked up, limits assumed)
In words: EMSA. To be noted: recombinant protein.

The target in data set [4] is T4, mini-TyrRS-V5 (Homo sapiens) (UniProt P54577).
T4 sequence (looked up, limits assumed): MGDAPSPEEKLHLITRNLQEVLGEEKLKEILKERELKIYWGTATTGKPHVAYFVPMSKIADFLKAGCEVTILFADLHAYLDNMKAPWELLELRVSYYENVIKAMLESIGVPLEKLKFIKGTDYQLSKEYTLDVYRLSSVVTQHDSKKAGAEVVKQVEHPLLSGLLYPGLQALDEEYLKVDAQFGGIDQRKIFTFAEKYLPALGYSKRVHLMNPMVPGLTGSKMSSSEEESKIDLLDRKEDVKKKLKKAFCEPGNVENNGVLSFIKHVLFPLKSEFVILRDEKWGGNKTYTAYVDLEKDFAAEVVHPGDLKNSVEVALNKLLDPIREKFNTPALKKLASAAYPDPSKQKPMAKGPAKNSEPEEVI
The data set can be described thus: EMSA. To be noted: nuclear extract; protein in an extract; protein details: V5.

Data set [5] has as its target T1, TyrRS-V5 (Homo sapiens). In words: EMSA. As to conditions: nuclear extract; protein in an extract; protein details: V5.

As for “ACTCTCTGCTGCTCCTCACTTTTTCCGG (double strand) [28 bp DNA (WT), CTCCTC motif]”, the binding result is “binds” with TyrRS-V5 (Homo sapiens) [1]; “binds” in the data set with TyrRS-V5 (Homo sapiens) [2]; “no binding” with CTD-V5 (Homo sapiens); “binds” in data set [3]; “no binding” in data set [4].
For “ACTCTCTGCTGCTTTTCACTTTTTCCGG (double strand) [28 bp DNA (Mut), CTTTTC]”, the binding result (in data set [3]; with TyrRS-V5 (Homo sapiens) [5]) was “no binding” in each case.
